Laboratory results taken from the supplement of paper PMC4604168 (melanoma cell lines).
The list shows a part of the results. Many values rest on one well or one pass, so single values are uncertain.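 The apoptosis fraction was the count of cleaved-PARP antibody-stained nuclei relative to all DNA-stained nuclei, imaged in 1,536-well plates. Screening doses were set so most cells survived, and baseline and induced cleaved-PARP levels vary greatly across cell lines.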

How the values were obtained:
Assay in all cases: cleaved PARP positive nuclei fraction relative to DMSO control; melanoma cells; higher = more apoptosis
Settings in all cases: library dose: low library concentration; 72 h
[1] = tested on: 501Mel
[2] = tested on: A101D
[3] = tested on: A2058
[4] = tested on: A375
[5] = tested on: C32
[6] = tested on: CBRC008 (line from a melanoma biopsy)
[7] = tested on: CBRC014 (line from a melanoma biopsy)
[8] = tested on: CBRC016 (line from a melanoma biopsy)
[9] = tested on: CBRC017 (line from a melanoma biopsy)
[10] = tested on: CBRC034 (line from a melanoma biopsy)
[11] = tested on: COLO792
[12] = tested on: COLO800
[13] = tested on: COLO829
[14] = tested on: G361
[15] = tested on: IPC-298
[16] = tested on: IST-MEL1
[17] = tested on: LB2518-MEL
[18] = tested on: LOXIMVI
[19] = tested on: MEL-HO

Structure (SMILES)	cleaved PARP positive nuclei fraction [1]	cleaved PARP positive nuclei fraction [2]	cleaved PARP positive nuclei fraction [3]	cleaved PARP positive nuclei fraction [4]	cleaved PARP positive nuclei fraction [5]	cleaved PARP positive nuclei fraction [6]	cleaved PARP positive nuclei fraction [7]	cleaved PARP positive nuclei fraction [8]	cleaved PARP positive nuclei fraction [9]	cleaved PARP positive nuclei fraction [10]	cleaved PARP positive nuclei fraction [11]	cleaved PARP positive nuclei fraction [12]	cleaved PARP positive nuclei fraction [13]	cleaved PARP positive nuclei fraction [14]	cleaved PARP positive nuclei fraction [15]	cleaved PARP positive nuclei fraction [16]	cleaved PARP positive nuclei fraction [17]	cleaved PARP positive nuclei fraction [18]	cleaved PARP positive nuclei fraction [19]
Cn1sc(=O)n(Cc2ccccc2)c1=O + CC(=O)c1c(C)c2cnc(Nc3ccc(N4CCNCC4)cn3)nc2n(C2CCCC2)c1=O [palbociclib] (first compound 0.4 µM, partner dose 0.04 µM)	135%	166%	137%	81%	81.4%	49%	114%	73.7%	114%	77.3%	111%	42.8%	126%	78.8%	46%	89.4%	129%	160%	71.8%
CCCCCCCCc1ccc(CCC(N)(CO)CO)cc1 [fingolimod] + O=C(O)[C@@H]1[O][Sb](=[O])([O][Sb]2(=[O])[O][C@H]([C@H](O)CO)[C@H](O)[C@H](C(=O)O)[O]2)[O][C@H]([C@H](O)CO)[C@@H]1O [stibogluconate] (first compound 2 µM, partner dose 2 µM)	101%	91.9%	45.4%	340%	28.7%	84.1%	78.5%	133%	128%	102%	85.1%	130%	100%	120%	94%	129%	46.8%	79.1%	70.3%
CS(=O)(=O)c1ccc(C(=O)Nc2ccc(Cl)c(-c3ccccn3)c2)c(Cl)c1 [vismodegib] + CC(C)C[C@H](NC(=O)[C@H](Cc1ccccc1)NC(=O)c1cnccn1)B(O)O [Bortezomib] (first compound 1 µM, partner dose 0.001 µM)	223%	67.1%	76.6%	150%	204%	107%	122%	172%	169%	101%	74.5%	107%	76.9%	352%	77.7%	91%	133%	155%	20.8%
Cn1cnc2c(F)c(Nc3ccc(Br)cc3Cl)c(C(=O)NOCCO)cc21 [selumetinib] + Cn1c(Nc2ccc(C(F)(F)F)cc2)nc2cc(Oc3ccnc(-c4ncc(C(F)(F)F)[nH]4)c3)ccc21 [CHIR265] (first compound 0.015 µM, partner dose 0.08 µM)	347%	163%	90.5%	508%	99.2%	248%	103%	47.5%	241%	130%	641%	140%	178%	288%	240%	74.4%	254%	114%	168%
C[C@]1(O)C[C@@H](c2nc(-c3ccc4ccc(-c5ccccc5)nc4c3)c3c(N)nccn32)C1 + CC(C)C[C@H](NC(=O)[C@H](Cc1ccccc1)NC(=O)c1cnccn1)B(O)O [Bortezomib] (first compound 0.4 µM, partner dose 0.001 µM)	420%	84.1%	185%	274%	35.8%	250%	120%	38.2%	162%	114%	41.5%	171%	194%	281%	63%	108%	64.1%	206%	58.5%
NC1(c2ccc(-c3nc4ccn5c(=O)[nH]nc5c4cc3-c3ccccc3)cc2)CCC1 + C[C@]1(c2nc3c(C(N)=O)cccc3[nH]2)CCCN1 [Veliparib] (first compound 0.4 µM, partner dose 1.4 µM)	97.5%	79.8%	63%	140%	84%	51.3%	79%	86.8%	88.3%	31.6%	98.3%	74.6%	183%	136%	89.4%	64%	104%	128%	137%
Cn1sc(=O)n(Cc2ccccc2)c1=O + Clc1ccc(Nc2nnc(Cc3ccncc3)c3ccccc23)cc1 [vatalanib] (first compound 0.4 µM, partner dose 2 µM)	97.6%	104%	53%	160%	141%	69%	270%	172%	121%	33.9%	77.5%	120%	100%	74%	84%	129%	120%	92.7%	108%
C[C@@H](N)c1ccc(C(=O)Nc2ccnc3[nH]ccc23)cc1 + Cc1nc(Nc2ncc(C(=O)Nc3c(C)cccc3Cl)s2)cc(N2CCN(CCO)CC2)n1 [dasatanib] (first compound 0.4 µM, partner dose 0.004 µM)	104%	266%	115%	258%	101%	106%	106%	81.9%	162%	89.2%	205%	66.5%	75.7%	71.9%	84.5%	263%	91.4%	212%	60.9%
CS(=O)(=O)c1ccc(C(=O)Nc2ccc(Cl)c(-c3ccccn3)c2)c(Cl)c1 [vismodegib] + C[C@@H](Oc1cc(-c2cnn(C3CCNCC3)c2)cnc1N)c1c(Cl)ccc(F)c1Cl [Crizotinib] (first compound 1 µM, partner dose 0.2 µM)	114%	231%	105%	77.5%	80.7%	107%	83.7%	146%	106%	68.9%	48.8%	86.4%	135%	110%	146%	52.6%	54.3%	87.7%	43.2%
CCCCCCCCc1ccc(CCC(N)(CO)CO)cc1 [fingolimod] + Cc1nc(Nc2ncc(C(=O)Nc3c(C)cccc3Cl)s2)cc(N2CCN(CCO)CC2)n1 [dasatanib] (first compound 2 µM, partner dose 0.004 µM)	76.1%	156%	87.8%	204%	252%	97.5%	285%	32.4%	109%	288%	95.6%	172%	170%	99.5%	29.2%	65.9%	57.3%	41.6%	177%
CCN(CC)CCNC(=O)c1c(C)[nH]c(/C=C2\C(=O)Nc3ccc(F)cc32)c1C [sunitinib] + Cn1nnc2c(C(N)=O)ncn2c1=O [temozolomide] (first compound 0.4 µM, partner dose 2 µM)	140%	103%	84%	102%	84.1%	65.9%	95.6%	80.5%	104%	38.5%	45.9%	75%	115%	157%	88.4%	323%	45.7%	47.4%	115%
CC(=O)O[C@@]12CO[C@@H]1C[C@H](O)[C@@]1(C)C(=O)[C@H](O)C3=C(C)[C@@H](OC(=O)[C@H](O)[C@@H](NC(=O)OC(C)(C)C)c4ccccc4)C[C@@](O)([C@@H](OC(=O)c4ccccc4)[C@H]21)C3(C)C [Docetaxel] + C[C@@H](Oc1cc(-c2cnn(C3CCNCC3)c2)cnc1N)c1c(Cl)ccc(F)c1Cl [Crizotinib] (first compound 0.0001 µM, partner dose 0.2 µM)	88.4%	91.4%	2540%	2110%	223%	725%	192%	371%	135%	192%	242%	510%	185%	361%	190%	225%	166%	119%	59.6%
CCCCCCCCc1ccc(CCC(N)(CO)CO)cc1 [fingolimod] + Cn1c(=O)n(-c2ccc(C(C)(C)C#N)cc2)c2c3cc(-c4cnc5ccccc5c4)ccc3ncc21 [NVP-BEZ235] (first compound 2 µM, partner dose 0.004 µM)	174%	81.8%	57.5%	585%	95%	39.4%	178%	62.2%	107%	154%	96.4%	142%	136%	106%	91.6%	431%	114%	76.4%	154%
CC(=O)O[C@@]12CO[C@@H]1C[C@H](O)[C@@]1(C)C(=O)[C@H](O)C3=C(C)[C@@H](OC(=O)[C@H](O)[C@@H](NC(=O)OC(C)(C)C)c4ccccc4)C[C@@](O)([C@@H](OC(=O)c4ccccc4)[C@H]21)C3(C)C [Docetaxel] + NC1(c2ccc(-c3nc4ccn5c(=O)[nH]nc5c4cc3-c3ccccc3)cc2)CCC1 [MK2206] (first compound 0.0001 µM, partner dose 0.4 µM)	171%	318%	2090%	10500%	129%	370%	116%	143%	219%	193%	606%	417%	363%	523%	635%	288%	326%	177%	361%
NC(=O)c1ccc(N(C(N)=O)c2c(F)cccc2F)nc1-c1ccc(F)cc1F + Nc1ccn([C@@H]2O[C@H](CO)[C@@H](O)C2(F)F)c(=O)n1 [gemcitabine] (first compound 0.4 µM, partner dose 0.0004 µM)	121%	52%	145%	42.7%	72.1%	40.1%	186%	125%	133%	229%	229%	125%	107%	149%	150%	88.6%	120%	28.1%	186%
C[C@@H](N)c1ccc(C(=O)Nc2ccnc3[nH]ccc23)cc1 + Cn1cnc2c(F)c(Nc3ccc(Br)cc3Cl)c(C(=O)NOCCO)cc21 [selumetinib] (first compound 0.4 µM, partner dose 0.015 µM)	245%	83.9%	171%	232%	111%	105%	91.5%	101%	98%	149%	195%	58.5%	178%	126%	91.6%	64.4%	190%	45.3%	133%

Full records as entered above. Values in the order: cleaved PARP positive nuclei fraction [1] | cleaved PARP positive nuclei fraction [2] | cleaved PARP positive nuclei fraction [3] | cleaved PARP positive nuclei fraction [4] | cleaved PARP positive nuclei fraction [5] | cleaved PARP positive nuclei fraction [6] | cleaved PARP positive nuclei fraction [7] | cleaved PARP positive nuclei fraction [8] | cleaved PARP positive nuclei fraction [9] | cleaved PARP positive nuclei fraction [10] | cleaved PARP positive nuclei fraction [11] | cleaved PARP positive nuclei fraction [12] | cleaved PARP positive nuclei fraction [13] | cleaved PARP positive nuclei fraction [14] | cleaved PARP positive nuclei fraction [15] | cleaved PARP positive nuclei fraction [16] | cleaved PARP positive nuclei fraction [17] | cleaved PARP positive nuclei fraction [18] | cleaved PARP positive nuclei fraction [19]
Cn1sc(=O)n(Cc2ccccc2)c1=O + Clc1ccc(Nc2nnc(Cc3ccncc3)c3ccccc23)cc1 [vatalanib] (first compound 0.4 µM, partner dose 2 µM) is listed with 97.6% | 104% | 53% | 160% | 141% | 69% | 270% | 172% | 121% | 33.9% | 77.5% | 120% | 100% | 74% | 84% | 129% | 120% | 92.7% | 108%
CCN(CC)CCNC(=O)c1c(C)[nH]c(/C=C2\C(=O)Nc3ccc(F)cc32)c1C [sunitinib] + Cn1nnc2c(C(N)=O)ncn2c1=O [temozolomide] (first compound 0.4 µM, partner dose 2 µM) is listed with 140% | 103% | 84% | 102% | 84.1% | 65.9% | 95.6% | 80.5% | 104% | 38.5% | 45.9% | 75% | 115% | 157% | 88.4% | 323% | 45.7% | 47.4% | 115%
